Source: patent US20160151451A1, “METHOD FOR GENERATING CARDIOMYOCYTES” (Korea Advanced Institute of Science and Technology (KAIST), priority 2014, published 2016)
For at least one compound, name, drawing or mass did not settle the structure.

System: mouse ESC-derived Flk1^+ MPCs
Assay: Differentiation of mouse ESC-derived Flk1^+ MPCs into cardiomyocytes in OP9 co-culture
Assay type: cell-based
Details: in combination with CsA; data not shown
Method: For induction of Flk1^+ MPCs, ESCs and iPSCs were cultured without LIF and plated on a 0.1% gelatin-coated dish at cell density 1-1.5×10^3 cells/cm^2 in the differentiation medium (alpha MEM, Invitrogen) with 10% fetal bovine serum (FBS) (Welgene), 2-mercaptoethanol (Invitrogen), L-glutamine (Invitrogen), and antibiotics (Invitrogen), which was changed every 2 days, for 4.5 days. At day 4.5, differentiated ESCs and iPSCs were harvested with 0.25% trypsin-EDTA and antigen recovery was performed in the differentiation medium for 30 min in an incubator. Then, cells were washed using phosphate buffered saline (PBS)/2% FBS and incubated with biotin-conjugated anti-mouse Flk1^+ antibody (clone AVAS 12a1, eBioscience) and […] MicroBeads (Miltenyi Biotec). […]
Differentiating Flk1^+ MPCs on OP9 cells were harvested with 0.25% trypsin-EDTA or dissociation buffer (Invitrogen). […] The cells were washed with 10% Perm/Wash buffer (BD Biosciences) and then analyzed. […] Data were analyzed using FlowJo Version 7.5.4 software (TreeStar).
The cells were fixed with 2% paraformaldehyde (PFA) and blocked with 5% goat (or donkey) serum in PBST (0.1% Tween 20 in PBS) for 1 hr at room temperature (RT). […] Immunocytochemistry stained images were obtained using an LSM510 confocal fluorescence microscope (Carl Zeiss). […] Images were analyzed using Image J software (http://imagej.nih.gov/ij/, 1.47V, NIH, USA). […]

## O=c1cc(N2CCOCC2)oc2c(-c3ccccc3)cccc12 [LY294002]
  effect on Flk1^+ MPC differentiation into cTnT^+ cells: rather inhibited or did not affect
